According to publication PMC9638971:
No constants are given. Whether binding was seen depends on the method and setting.

Target: periplasmic chaperone SurA of P. aeruginosa (P. aeruginosa PAO1) (UniProt Q9I5U3)
Test: SEC-MALS; isolated chaperones at 2 mg/ml, Superdex 200 Increase 10/300 GL; FkpA, SurA and PpiD in 50 mM KCl, 5 mM MgCl2, 20 mM HEPES-KOH pH 7.4; YfgM in 5 mM glycine, 20 mM NaCl, 5 mM Tris-HCl pH 8.5; Skp in 100 mM NaCl, 20 mM Tris-HCl pH 8.0; LipH in 100 mM NaCl, 200 µM TCEP, 50 mM Tris-HCl pH 8.0; both purified

- binding: no binding (tested: 2 mg/ml)
B1: periplasmic chaperone SurA of P. aeruginosa (protein, UniProt Q9I5U3 13-417)
chain: EVVPLDRVVAIVDNDVIMQSQLDQRLREVHQTLLKRGAPLPPEHVLTQQVLERLIIENIQQQIGDRSGIRISDEELNQAMGTIAQRNGMSLEQFQTALTRDGLSYADAREQVRREMVISRVRQRRVAERIQVSEQEVKNFLASDMGKIQLSEEYRLANILIPVPEAASSDVIQAAARQAQELYQQLKQGADFGQLAISRSAGDNALEGGEIGWRKAAQLPQPFDSMIGSLAVGDVTEPVRTPGGFIILKLEEKRGGSKMVRDEVHVRHILLKPSEIRSEAETEKLAQKLYERIQSGEDFGELAKSFSEDPGSALNGGDLNWIDPEALVPEFRQVMNDTPQGELSKPFRSQFGWHILQVLGRRATDSSEKFREQQAVSVLRNRKYDEELQAWLRQIRDEAYVEIKQ
